Results are given in words; binding and its absence hold for the method and conditions named. Binding seen in cells or lysates may run through a third protein. Some binding calls cover weakened binding; strength is not graded here.
Target: IGF-1 receptor β subunit (mouse (endogenous in murine dermal fibroblasts)) (UniProt Q60751)
Assay: co-IP; lysates of MDFs treated with 500 μM rotenone for 3 h (and untreated control); immunoprecipitated with anti-IGF-1Rβ antibodies, immunoblotted with anti-IGF-1Rβ and anti-PTP1B antibodies

Protein sequences, listed by entry. Tags and fused reporters are not part of them. Residues count along the entry.
UniProt Q60751, residues 742-1373: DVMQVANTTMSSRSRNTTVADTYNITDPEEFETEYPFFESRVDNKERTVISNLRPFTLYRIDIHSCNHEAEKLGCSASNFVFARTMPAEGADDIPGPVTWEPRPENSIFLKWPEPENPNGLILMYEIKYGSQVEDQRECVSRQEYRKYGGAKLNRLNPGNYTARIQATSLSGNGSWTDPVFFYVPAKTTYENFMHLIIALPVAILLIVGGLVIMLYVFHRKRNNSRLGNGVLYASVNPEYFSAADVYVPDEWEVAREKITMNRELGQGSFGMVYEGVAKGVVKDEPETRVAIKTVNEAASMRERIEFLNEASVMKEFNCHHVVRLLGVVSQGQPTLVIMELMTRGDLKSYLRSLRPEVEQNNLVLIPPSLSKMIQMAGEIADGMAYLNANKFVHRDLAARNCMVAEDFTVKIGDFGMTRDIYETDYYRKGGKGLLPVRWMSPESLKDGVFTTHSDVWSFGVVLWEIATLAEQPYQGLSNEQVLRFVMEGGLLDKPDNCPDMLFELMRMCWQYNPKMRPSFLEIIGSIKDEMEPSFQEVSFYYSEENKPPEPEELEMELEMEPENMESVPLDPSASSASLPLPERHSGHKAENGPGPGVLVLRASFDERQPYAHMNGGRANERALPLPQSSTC

B1: Protein tyrosine phosphatase 1B (enzyme, UniProt P35821 1-432)
chain: MEMEKEFEEIDKAGNWAAIYQDIRHEASDFPCKVAKLPKNKNRNRYRDVSPFDHSRIKLHQEDNDYINASLIKMEEAQRSYILTQGPLPNTCGHFWEMVWEQKSRGVVMLNRIMEKGSLKCAQYWPQQEEKEMVFDDTGLKLTLISEDVKSYYTVRQLELENLTTKETREILHFHYTTWPDFGVPESPASFLNFLFKVRESGSLSLEHGPIVVHCSAGIGRSGTFCLADTCLLLMDKRKDPSSVDIKKVLLEMRRFRMGLIQTADQLRFSYLAVIEGAKFIMGDSSVQDQWKELSREDLDLPPEHVPPPPRPPKRTLEPHNGKCKELFSSHQWVSEETCGDEDSLAREEGRAQSSAMHSVSSMSPDTEVRRRMVGGGLQSAQASVPTEEELSSTEEEHKAHWPSHWKPFLVNVCMATLLATGAYLCYRVCFH
- binding: binds

— publication PMC4309668
